Data taken from US20220074941A1, “HSP90 COMBINATION THERAPY” (Sloan-Kettering Institute for Cancer Research, priority 2011, published 2022).

Legend:
[1] = tested on: Hsp90 complexes in K562 cell extract; assay: Nano-LC-MS/MS of PU-beads pull-downs; format: binding; settings: for Matched Peptides by Fraction JA05: Run1, gel size cut 60-80; for Matched Peptides by Fraction JA12: Run2, gel size cut 60-80; for MAXIMUM matched peptides: maximum over fractions JA01-JA14; for Total fmol: protein isolated in PU-beads pull-downs, Waters Xevo QTof MS
Summary of the method: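 Lysates pre-cleared overnight at 4 °C with control beads, then pulled down with PU-beads or control beads; eluted proteins (2% SDS boil) gel-separated and analysed by nano LC-MS/MS on a QTof. Mascot identification (p<0.05), spectral counts and sequence coverage evaluated in Scaffold.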

[2] = tested on: Hsp90 complexes in Mia-PaCa-2 cell extract; assay: Nano-LC-MS/MS of PU-beads pull-downs; format: binding, human; settings: protein identified in PU-beads pull-down of Mia-Paca 2 extract; QSTAR-Elite QTof MS
Experimental: Lysates prepared as mentioned above were first pre-cleaned by incubation with control beads overnight at 4° C. […] Beads were washed with lysis buffer, proteins eluted by boiling in 2% SDS, separated on a denaturing gel and Coomassie stained according to manufacturer's procedure (Biorad). […] Analyses of the batch purified pools were done using a QSTAR-Elite hybrid quadrupole time-of-flight mass spectrometer (QTof MS) (AB/MDS Sciex), equipped with a nano spray ion source. Peptide mixtures (in 20 μL) are loaded onto a trapping guard column (0.3×5-mm PepMap C18 100 cartridge from LC Packings) using an Eksigent nano MDLC system (Eksigent Technologies, Inc) at a flow rate of 20 μL/min. […] Electrospray ionization (ESI) needle voltage was set at about 1800 V. The mass analyzer is operated in automatic, data-dependent MS/MS acquisition mode, with the threshold set to 10 counts per second of doubly or triply charged precursor ions selected for fragmentation scans. Survey scans of 0.25 sec are recorded from 400 to 1800 amu; up to 3 MS/MS scans are then collected sequentially for the selected precursor ions, recording from 100 to 1800 amu. The collision energy is automatically adjusted in accordance with the m/z value of the precursor ions selected for MS/MS. Selected precursor ions are excluded from repeated selection for 60 sec after the end of the corresponding fragmentation duty cycle. […] One missed tryptic cleavage site was allowed, precursor ion mass tolerance=0.4 Da fragment ion mass tolerance=0.4 Da, protein modifications were allowed for Met-oxide, Cys-acrylamide and N-terminal acetylation. MudPit scoring was typically applied with ‘require bold red’ activated, and using significance threshold score p<0.05. Unique peptide counts (or ‘spectral counts’) and percent sequence coverages for all identified proteins were exported to Scaffold Proteome Software (version 2_06_01, www.proteomesoftware.com) for further bioinformatic analysis (Table 5a). Using output from Mascot, Scaffold validates, organizes, and interprets mass spectrometry data, allowing more easily to manage large amounts of data, to compare samples, and to search for protein modifications.

Molecule | Matched Peptides by Fraction JA05 ([1]; PU-beads pull-down) | Matched Peptides by Fraction JA12 ([1]; PU-beads pull-down) | MAXIMUM matched peptides ([1]; PU-beads pull-down) | Total fmol [1] [fmol] | further results
Tyrosine-protein kinase BTK (protein, UniProt Q06187 2-659, looked up) Tyrosine-protein kinase BTK: AAVILESIFLKRSQQKKKTSPLNFKKRLFLLTVHKLSYYEYDFERGRRGSKKGSIDVEKITCVETVVPEKNPPPERQIPRRGEESSEMEQISIIERFPYPFQVVYDEGPLYVFSPTEELRKRWIHQLKNVIRYNSDLVQKYHPCFWIDGQYLCCSQTAKNAMGCQILENRNGSLKPGSSHRKTKKPLPPTPEEDQILKKPLPPEPAAAPVSTSELKKVVALYDYMPMNANDLQLRKGDEYFILEESNLPWWRARDKNGQEGYIPSNYVTEAEDSIEMYEWYSKHMTRSQAEQLLKQEGKEGGFIVRDSSKAGKYTVSVFAKSTGDPQGVIRHYVVCSTPQSQYYLAEKHLFSTIPELINYHQHNSAGLISRLKYPVSQQNKNAPSTAGLGYGSWEIDPKDLTFLKELGTGQFGVVKYGKWRGQYDVAIKMIKEGSMSEDEFIEEAKVMMNLSHEKLVQLYGVCTKQRPIFIITEYMANGCLLNYLREMRHRFQTQQLLEMCKDVCEAMEYLESKQFLHRDLAARNCLVNDQGVVKVSDFGLSRYVLDDEYTSSVGSKFPVRWSPPEVLMYSKFSSKSDIWAFGVLMWEIYSLGKMPYERFTNSETAEHIAQGLRLYRPHLASEKVYTIMYSCWHEKADERPTFKILLSNILDVMDEES | 11 | 14 | 14 | 10.8031 | 
Epidermal growth factor receptor substrate 15 (protein) AAAAQLSLTQLSSGNPVYEKYYRQVDTGNTGRVLASDAAAFLKKSGLPDLILGKIWDLADTDGKGILNKQEFFVALRLVACAQNGLEVSLSSLNLAVPPPRFHDTSSPLLISGTSAAELPWAVKPEDKAKYDAIFDSLSPVNGFLSGDKVKPVLLNSKLPVDILGRVWELSDIDHDGMLDRDEFAVAMFLVYCALEKEPVPMSLPPALVPPSKRKTWVVSPAEKAKYDEIFLKTDKDMDGFVSGLEVREIFLKTGLPSTLLAHIWSLCDTKDCGKLSKDQFALAFHLISQKLIKGIDPPHVLTPEMIPPSDRASLQKNIIGSSPVADFSAIKELDTLNNEIVDLQREKNNVEQDLKEKEDTIKQRTSEVQDLQDEVQRENTNLQKLQAQKQQVQELLDELDEQKAQLEEQLKEVRKKCAEEAQLISSLKAELTSQESQISTYEEELAKAREELSRLQQETAELEESVESGKAQLEPLQQHLQDSQQEISSMQMKLMEMKDLENHNSQLNWCSSPHSILVNGATDYCSLSTSSSETANLNEHVEGQSNLESEPIHQESPARSSPELLPSGVTDENEVTTAVTEKVCSELDNNRHSKEEDPFNVDSSSLTGPVADTNLDFFQSDPFVGSDPFKDDPFGKIDPFGGDPFKGSDPFASDCFFRQSTDPFATSSTDPFSAANNSSITSVETLKHNDPFAPGGTVVAASDSATDPFASVFGNESFGGGFADFSTLSKVNNEDPFRSATSSSVSNVVITKNVFEETSVKSEDEPPALPPKIGTPTRPCPLPPGKRSINKLDSPDPFKLNDPFQPFPGNDSPKEKDPEIFCDPFTSATTTTNKEADPSNFANFSAYPSEEDMIEWAKRESEREEEQRLARLNQQEQEDLELAIALSKSEISEA |  |  | 33 | 20.4881 | Matched Peptides by Fraction JA03 ([1]; PU-beads pull-down, Run1, gel size cut 110-150): 24; Matched Peptides by Fraction JA10 ([1]; PU-beads pull-down, Run2, gel size cut 110-150): 33
Histone-arginine methyltransferase CARM1 (protein, UniProt Q86X55 2-608, looked up) Histone-arginine …: AAAAAAVGPGAGGAGSAVPGGAGPCATVSVFPGARLLTIGDANGEIQRHAEQQALRLEVRAGPDSAGIALYSHEDVCVFKCSVSRETECSRVGKQSFIITLGCNSVLIQFATPNDFCSFYNILKTCRGHTLERSVFSERTEESSAVQYFQFYGYLSQQQNMMQDYVRTGTYQRAILQNHTDFKDKIVLDVGCGSGILSFFAAQAGARKIYAVEASTMAQHAEVLVKSNNLTDRIVVIPGKVEEVSLPEQVDIIISEPMGYMLFNERMLESYLHAKKYLKPSGNMFPTIGDVHLAPFTDEQLYMEQFTKANFWYQPSFHGVDLSALRGAAVDEYFRQPVVDTFDIRILMAKSVKYTVNFLEAKEGDLHRIEIPFKFHMLHSGLVHGLAFWFDVAFIGSIMTVWLSTAPTEPLTHWYQVRCLFQSPLFAKAGDTLSGTCLLIANKRQSYDISIVAQVDQTGSKSSNLLDLKNPFFRYTGTTPSPPPGSHYTSPSENMWNTGSTYNLSSGMAVAGMPTAYDLSSVIASGSSVGHNNLIPLANTGIVNHTHSRMGSIMSTGIVQGSSGAQGSGGGSTSAHYAVNSQFTMGGPAISMASPMSIPTNTMHYGS | 22 | 25 | 25 | 50.3460 | Matched Peptides by Fraction JA01 ([1]; PU-beads pull-down, Run1, gel size cut >200): 5; Matched Peptides by Fraction JA08 ([1]; PU-beads pull-down, Run2, gel size cut >200): 7
PHKB (protein, UniProt Q93100 2-1093, looked up) Phosphorylase b kinase …: AGAAGLTAEVSWKVLERRARTKRSGSVYEPLKSINLPRPDNETLWDKLDHYYRIVKSTLLLYQSPTTGLFPTKTCGGDQKAKIQDSLYCAAGAWALALAYRRIDDDKGRTHELEHSAIKCMRGILYCYMRQADKVQQFKQDPRPTTCLHSVFNVHTGDELLSYEEYGHLQINAVSLYLLYLVEMISSGLQIIYNTDEVSFIQNLVFCVERVYRVPDFGVWERGSKYNNGSTELHSSSVGLAKAALEAINGFNLFGNQGCSWSVIFVDLDAHNRNRQTLCSLLPRESRSHNTDAALLPCISYPAFALDDEVLFSQTLDKVVRKLKGKYGFKRFLRDGYRTSLEDPNRCYYKPAEIKLFDGIECEFPIFFLYMMIDGVFRGNPKQVQEYQDLLTPVLHHTTEGYPVVPKYYYVPADFVEYEKNNPGSQKRFPSNCGRDGKLFLWGQALYIIAKLLADELISPKDIDPVQRYVPLKDQRNVSMRFSNQGPLENDLVVHVALIAESQRLQVFLNTYGIQTQTPQQVEPIQIWPQQELVKAYLQLGINEKLGLSGRPDRPIGCLGTSKIYRILGKTVVCYPIIFDLSDFYMSQDVFLLIDDIKNALQFIKQYWKMHGRPLFLVLIREDNIRGSRFNPILDMLAALKKGIIGGVKVHVDRLQTLISGAVVEQLDFLRISDTEELPEFKSFEELEPPKHSKVKRQSSTPSAPELGQQPDVNISEWKDKPTHEILQKLNDCSCLASQAILLGILLKREGPNFITKEGTVSDHIERVYRRAGSQKLWLAVRYGAAFTQKFSSSIAPHITTFLVHGKQVTLGAFGHEEEVISNPLSPRVIQNIIYYKCNTHDEREAVIQQELVIHIGWIISNNPELFSGMLKIRIGWIIHAMEYELQIRGGDKPALDLYQLSPSEVKQLLLDILQPQQNGRCWLNRRQIDGSLNRTPTGFYDRVWQILERTPNGIIVAGKHLPQQPTLSDMTMYEMNFSLLVEDTLGNIDQPQYRQIVVELLMVVSIVLERNPELEFQDKVDLDRLVKEAFNEFQKDQSRLKEIEKQDDMTSFYNTPPLGKRGTCSYLTKAVMNLLLEGEVKPNNDDPCLIS |  |  |  |  | Number of Assigned Spectra, K562 Prep 1 ([1]; protein identified in PU-beads pull-down of K562 extract, Prep 1, QSTAR-Elite QTof MS): 10; Number of Assigned Spectra, K562 Prep 2 ([1]; protein identified in PU-beads pull-down of K562 extract, Prep 2, QSTAR-Elite QTof MS): 3; Number of Assigned Spectra, Mia-Paca 2 [2]: 9
Serine/threonine-protein kinase NLK (protein, UniProt Q9UBE8 1-527, looked up) Serine/threonine-protein …: MSLCGARANAKMMAAYNGGTSAAAAGHHHHHHHHLPHLPPPHLHHHHHPQHHLHPGSAAAVHPVQQHTSSAAAAAAAAAAAAAMLNPGQQQPYFPSPAPGQAPGPAAAAPAQVQAAAAATVKAHHHQHSHHPQQQLDIEPDRPIGYGAFGVVWSVTDPRDGKRVALKKMPNVFQNLVSCKRVFRELKMLCFFKHDNVLSALDILQPPHIDYFEEIYVVTELMQSDLHKIIVSPQPLSSDHVKVFLYQILRGLKYLHSAGILHRDIKPGNLLVNSNCVLKICDFGLARVEELDESRHMTQEVVTQYYRAPEILMGSRHYSNAIDIWSVGCIFAELLGRRILFQAQSPIQQLDLITDLLGTPSLEAMRTACEGAKAHILRGPHKQPSLPVLYTLSSQATHEAVHLLCRMLVFDPSKRISAKDALAHPYLDEGRLRYHTCMCKCCFSTSTGRVYTSDFEPVTNPKFDDTFEKNLSSVRQVKEIIHQFILEQQKGNRVPLCINPQSAAFKSFISSTVAQPSEMPPSPLVWE |  |  | 14 | 7.0941 | Matched Peptides by Fraction JA06 ([1]; PU-beads pull-down, Run1, gel size cut 40-60): 7; Matched Peptides by Fraction JA13 ([1]; PU-beads pull-down, Run2, gel size cut 40-60): 14
